Here are results for four molecules from patent US20200340060A1, “COMPOSITIONS AND METHODS FOR IDENTIFYING AND TREATING LIVER DISEASES AND MONITORING TREATMENT OUTCOMES” (Gilead Sciences, Inc., priority 2017, published 2020).

The chains are these.
B1: Keratin 18 (protein, UniProt P05783 2-430, looked up)
Keratin, type I cytoskeletal …: SFTTRSTFSTNYRSLGSVQAPSYGARPVSSAASVYAGAGGSGSRISVSRSTSFRGGMGSGGLATGIAGGLAGMGGIQNEKETMQSLNDRLASYLDRVRSLETENRRLESKIREHLEKKGPQVRDWSHYFKIIEDLRAQIFANTVDNARIVLQIDNARLAADDFRVKYETELAMRQSVENDIHGLRKVIDDTNITRLQLETEIEALKEELLFMKKNHEEEVKGLQAQIASSGLTVEVDAPKSQDLAKIMADIRAQYDELARKNREELDKYWSQQIEESTTVVTTQSAEVGAAETTLTELRRTVQSLEIDLDSMRNLKASLENSLREVEARYALQMEQLNGILLHLESELAQTRAEGQRQAQEYEALLNIKVKLEAEIATYRRLLEDGEDFNLGDALDSSNSMQTIQKTTTRRIVDGKVVSETNDTKVLRH
B2: Aminoacylase-1 (protein, UniProt Q03154 1-408, looked up)
Aminoacylase-1: MTSKGPEEEHPSVTLFRQYLRIRTVQPKPDYGAAVAFFEETARQLGLGCQKVEVAPGYVVTVLTWPGTNPTLSSILLNSHTDVVPVFKEHWSHDPFEAFKDSEGYIYARGAQDMKCVSIQYLEAVRRLKVEGHRFPRTIHMTFVPDEEVGGHQGMELFVQRPEFHALRAGFALDEGIANPTDAFTVFYSERSPWWVRVTSTGRPGHASRFMEDTAAEKLHKVVNSILAFREKEWQRLQSNPHLKEGSVTSVNLTKLEGGVAYNVIPATMSASFDFRVAPDVDFKAFEEQLQSWCQAAGEGVTLEFAQKWMHPQVTPTDDSNPWWAAFSRVCKDMNLTLEPEIMPAATDNRYIRAVGVPALGFSPMNRTPVLLHDHDERLHEAVFLRGVDIYTRLLPALASVPALPSDS
B3: NADPH-P450 Oxidoreductase (protein, UniProt P16435 2-677, looked up)
NADPH--cytochrome P450 …: GDSHVDTSSTVSEAVAEEVSLFSMTDMILFSLIVGLLTYWFLFRKKKEEVPEFTKIQTLTSSVRESSFVEKMKKTGRNIIVFYGSQTGTAEEFANRLSKDAHRYGMRGMSADPEEYDLADLSSLPEIDNALVVFCMATYGEGDPTDNAQDFYDWLQETDVDLSGVKFAVFGLGNKTYEHFNAMGKYVDKRLEQLGAQRIFELGLGDDDGNLEEDFITWREQFWPAVCEHFGVEATGEESSIRQYELVVHTDIDAAKVYMGEMGRLKSYENQKPPFDAKNPFLAAVTTNRKLNQGTERHLMHLELDISDSKIRYESGDHVAVYPANDSALVNQLGKILGADLDVVMSLNNLDEESNKKHPFPCPTSYRTALTYYLDITNPPRTNVLYELAQYASEPSEQELLRKMASSSGEGKELYLSWVVEARRHILAILQDCPSLRPPIDHLCELLPRLQARYYSIASSSKVHPNSVHICAVVVEYETKAGRINKGVATNWLRAKEPAGENGGRALVPMFVRKSQFRLPFKATTPVIMVGPGTGVAPFIGFIQERAWLRQQGKEVGETLLYYGCRRSDEDYLYREELAQFHRDGALTQLNVAFSREQSHKVYVQHLLKQDREHLWKLIEGGAHIYVCGDARNMARDVQNTFYDIVAELGAMEHAQAVDYIKKLMTKGRYSLDVWS
B4: CHST2 (protein, UniProt Q9Y4C5 1-530, looked up)
Carbohydrate sulfotransferase …: MSRSPQRALPPGALPRLLQAAPAAAPRALLPQWPRRPGRRWPASPLGMKVFRRKALVLCAGYALLLVLTMLNLLDYKWHKEPLQQCNPDGPLGAAAGAAGGSWGRPGPPPAGPPRAHARLDLRTPYRPPAAAVGAAPAAAAGMAGVAAPPGNGTRGTGGVGDKRQLVYVFTTWRSGSSFFGELFNQNPEVFFLYEPVWHVWQKLYPGDAVSLQGAARDMLSALYRCDLSVFQLYSPAGSGGRNLTTLGIFGAATNKVVCSSPLCPAYRKEVVGLVDDRVCKKCPPQRLARFEEECRKYRTLVIKGVRVFDVAVLAPLLRDPALDLKVIHLVRDPRAVASSRIRSRHGLIRESLQVVRSRDPRAHRMPFLEAAGHKLGAKKEGVGGPADYHALGAMEVICNSMAKTLQTALQPPDWLQGHYLVVRYEDLVGDPVKTLRRVYDFVGLLVSPEMEQFALNMTSGSGSSSKPFVVSARNATQAANAWRTALTFQQIKQVEEFCYQPMAVLGYERVNSPEEVKDLSKTLLRKPRL

The first data set can be described thus: SOMAscan serum proteomics in NASH subjects treated with selonsertib/simtuzumab, baseline and week 24. Further details: species or system human. The conditions noted are these: serum protein marker level; lobular inflammation improvers; week 24 vs baseline.
Turning to B1, the “Median percent CHG at W24 in improver” value is on record as 4.1%.
As to B2, the “Median percent CHG at W24 in improver” value is −37.08%.
Still for that read-out and setting: the result for B3 reads −37.395%; that for B4, −5.34%.

Staying with this data set, now noted: serum protein marker level; lobular inflammation non-improvers; week 24 vs baseline.
Regarding B1, the “Median percent CHG at W24 in Non-improver” value is −0.96%.
Take B2: the “Median percent CHG at W24 in Non-improver” value is on record as −11.97%.
In the case of B3, the “Median percent CHG at W24 in Non-improver” value is reported as −8.01%.
The same measure, in the same setting: as for B4, the figure is 1.67%.
